The text below walks through data of paper doi:10.1101/2021.01.29.428592.

Results are given in words; binding and its absence hold for the method and conditions named. Binding seen in cells or lysates may run through a third protein. A yes stands for co-enrichment or nearness to the bait. Other partners may have been found.

This experiment addresses 3xFLAG-tagged RhlE1 (PA3950), DEAD-box RNA helicase of Pseudomonas aeruginosa (P. aeruginosa PAO1) (UniProt Q9HX66). In words: affinity purification with mass spectrometry.

For the substance “DnaK chaperone of P. aeruginosa (from UniProt Q9HV43 1-637)”, the binding entry is reported as “binds”.
